Assay results from article PMC11166998.
These are yes or no findings as the source states them, for the method shown. Binding seen in cells or lysates may run through a third protein. Some entries that bind do so weakly or less than the wild type.

Sequences of proteins named here, by UniProt entry; tags and fusion partners are left off.
UniProt Q969H0: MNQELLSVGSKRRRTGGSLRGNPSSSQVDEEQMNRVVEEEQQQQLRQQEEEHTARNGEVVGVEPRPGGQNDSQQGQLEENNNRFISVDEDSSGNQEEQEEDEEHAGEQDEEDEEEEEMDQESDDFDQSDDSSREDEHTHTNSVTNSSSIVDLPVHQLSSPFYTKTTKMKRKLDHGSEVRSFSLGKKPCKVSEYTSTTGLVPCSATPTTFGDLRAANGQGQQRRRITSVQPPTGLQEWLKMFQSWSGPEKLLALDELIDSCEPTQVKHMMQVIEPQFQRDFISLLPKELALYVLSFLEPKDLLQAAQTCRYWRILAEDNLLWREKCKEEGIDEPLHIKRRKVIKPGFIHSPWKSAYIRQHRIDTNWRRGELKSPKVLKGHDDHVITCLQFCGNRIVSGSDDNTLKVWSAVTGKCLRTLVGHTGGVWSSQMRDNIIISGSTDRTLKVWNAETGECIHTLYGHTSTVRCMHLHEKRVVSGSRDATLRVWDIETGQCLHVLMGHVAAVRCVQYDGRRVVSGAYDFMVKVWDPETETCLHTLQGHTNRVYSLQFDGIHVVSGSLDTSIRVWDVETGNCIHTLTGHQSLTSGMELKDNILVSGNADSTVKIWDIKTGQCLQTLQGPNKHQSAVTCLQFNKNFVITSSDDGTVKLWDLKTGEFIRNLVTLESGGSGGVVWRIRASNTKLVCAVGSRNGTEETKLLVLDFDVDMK

Target: T1, AGEs receptor 1 (AGER1) (human (endogenous in HAVSMCs)) (UniProt P39656)
T1 sequence: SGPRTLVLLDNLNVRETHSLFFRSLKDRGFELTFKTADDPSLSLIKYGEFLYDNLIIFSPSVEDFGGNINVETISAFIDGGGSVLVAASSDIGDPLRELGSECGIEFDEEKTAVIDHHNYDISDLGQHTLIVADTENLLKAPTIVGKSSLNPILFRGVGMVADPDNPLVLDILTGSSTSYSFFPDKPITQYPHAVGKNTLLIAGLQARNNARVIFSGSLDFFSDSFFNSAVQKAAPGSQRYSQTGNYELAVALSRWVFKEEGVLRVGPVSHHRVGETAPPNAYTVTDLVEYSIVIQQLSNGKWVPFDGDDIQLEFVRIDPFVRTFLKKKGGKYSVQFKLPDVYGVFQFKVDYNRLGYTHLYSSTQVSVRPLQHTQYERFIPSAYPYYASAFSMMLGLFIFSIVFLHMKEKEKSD
Experiment: co-IP; endogenous proteins extracted from HAVSMCs, IP Assay kit (Proteintech), antibodies 1 µg/mg protein, immunoblotting; cells with or without AGE (200 µg/ml) and MG132 (10 µM) for 24 h; which of the two was precipitated is not told

Question: “F-box and WD repeat domain-containing 7 (FBXW7) (from UniProt Q969H0 1-707)” was tested. Which binding did it give?
Answer: Its binding is “binds”.
